Test results reported in patent US10709667B2, “Hydrogel encapsulated cells and anti-inflammatory drugs” (Massachusetts Institute of Technology, priority 2011, dated 2020).
At least one structure is not confirmed: it was looked up by name or label, or the drawing left a doubt.

Legend:
[1] = tested on: encapsulated islets; format: cell-based; conditions: hybrid alginate capsules with 2 mg/ml dexamethasone or 1 mg/ml curcumin, 4 days co-culture, FIG. 5
Description: (§1) RAW 264.7 macrophages were cultured in RPMI-1640 medium supplemented with 10% FBS, 100 units/ml penicillin and 100 μg/ml streptomycin (Invitrogen). The cells were sub-cultured every 2-3 days. 0.2 million macrophages in 3 ml of fresh culture medium were seeded into each well of a six-well tissue-culture treated polystyrene plate and allowed to adhere to the plate surface over night. The culture medium was removed and encapsulated islets were added in 3 ml of fresh medium to each well with adherent macrophages. Co-culturing of encapsulated islets with macrophages was maintained for four days. Afterwards, supernatant samples were collected and frozen at −20° C. for future insulin analysis with an insulin ELISA kit (ALPCO diagnostics). Encapsulated islets were collected into new plates. Both encapsulated islets and remaining adherent macrophages were washed in HEPES buffer and subjected to live-dead fluorescent staining (Invitrogen) for viability assessment.
(§2) An in vitro experiment was designed to test whether the presence of immune cells affects insulin secretion by islets. Hybrid alginate capsules containing islet cells and 2 mg/ml of dexamethasone or 1 mg/ml of curcumin were fabricated. Islet cells were encapsulated alone as a positive control. As a negative control, encapsulated islets were co-cultured with a macrophage cell line adherent to the plate's bottom. […]

[2] = tested on: RAW 264.7 macrophages; test: Co-culture of macrophages and encapsulated islets: macrophage proliferation; format: cell-based; conditions: hybrid alginate capsules with 2 mg/ml dexamethasone or 1 mg/ml curcumin, 4 days co-culture
Description: as §1, §2

[3] = tested on: C57/B6 mice with streptozotocin (STZ)-induced diabetes; test: Transplantation of encapsulated rat islets into STZ-induced diabetic mice, daily blood glucose monitoring; format: in vivo; conditions: daily blood glucose over 2 months, marginal mass of islets, intraperitoneal, n=6-7
[4] = tested on: fibrosis on capsules; test: Fibrosis formation on capsules retrieved 60 days after transplantation (observation, DNA fluorescent staining); format: in vivo, mice; conditions: FIG. 9
[5] = tested on: islet cells in retrieved capsules; test: Insulin secretion from retrieved capsules; format: in vivo; conditions: 24 hours, FIG. 10

## C[C@@H]1C[C@H]2[C@@H]3CCC4=CC(=O)C=C[C@]4(C)[C@@]3(F)[C@@H](O)C[C@]2(C)[C@@]1(O)C(=O)CO [dexamethasone]
[1]
  insulin secretion from encapsulated islets co-cultured with macrophages: restored insulin secretion
[2]
  macrophages proliferation: hindered macrophages proliferation
[3]
  glycemic control: improved glycemic control
[4]
  fibrosis by DNA fluorescence of retrieved capsules: did not
[5]
  insulin secretion from retrieved capsules: greatly improved insulin secretion
